{"source": "PubChem BioAssay AID1259308 – NCATS, 2017", "test": "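Candidate targets for better recombinant protein yield in mammalian cells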 (primary screen)", "cells": "human HEK293 embryonic kidney cells stably expressing firefly luciferase (HEK-CMV-Luc2-Hygro)", "reagent": "single siRNA against human genes, 0.8 pmol siRNA per well", "timing": "72 h", "read-out": "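Luciferase light (ONE-Glo) measured on one replicate plate set and viability (CellTiter-Glo) on the other, scaled to a negative control siRNA, with robust z-scores and luciferase per cell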", "scale": "total luciferase, z-score and total luciferase, % of control: higher = more reporter protein produced", "rule for the call": "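An siRNA counts as active if its total luciferase robust z-score exceeds 3; genes with two or more such siRNAs out of three were retested with fresh siRNAs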", "calls": "active = raised luciferase; inactive = no rise", "note": "The deposit covers about 59,000 reagents; below is a random part of them. About 1,510 of them (2.6%) count as active. 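Calls use total luciferase alone and ignore viability, so some active siRNAs may act by altering cell number.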 Reagents against one gene are numbered here. Not all columns of the deposit are shown."}
{"Gene": "CDC16 (cell division cycle 16)", "siRNA no.": 1, "total luciferase, z-score": -0.428, "total luciferase, % of control": 73.4, "Call": "inactive"}
{"Gene": "CDC16 (cell division cycle 16)", "siRNA no.": 2, "total luciferase, z-score": -0.0543, "total luciferase, % of control": 80.8, "Call": "inactive"}
{"Gene": "CDC16 (cell division cycle 16)", "siRNA no.": 3, "total luciferase, z-score": 2.22, "total luciferase, % of control": 126, "Call": "inactive"}
{"Gene": "ZNF711 (ZFX family zinc finger ZNF711)", "siRNA no.": 1, "total luciferase, z-score": -1.49, "total luciferase, % of control": 52.3, "Call": "inactive"}
{"Gene": "ZNF711 (ZFX family zinc finger ZNF711)", "siRNA no.": 2, "total luciferase, z-score": 0.492, "total luciferase, % of control": 91.7, "Call": "inactive"}
{"Gene": "ZNF711 (ZFX family zinc finger ZNF711)", "siRNA no.": 3, "total luciferase, z-score": 0.789, "total luciferase, % of control": 97.6, "Call": "inactive"}
{"Gene": "GPR143 (G protein-coupled receptor 143)", "siRNA no.": 1, "total luciferase, z-score": -0.151, "total luciferase, % of control": 78.9, "Call": "inactive"}
{"Gene": "GPR143 (G protein-coupled receptor 143)", "siRNA no.": 2, "total luciferase, z-score": -0.363, "total luciferase, % of control": 74.7, "Call": "inactive"}
{"Gene": "GPR143 (G protein-coupled receptor 143)", "siRNA no.": 3, "total luciferase, z-score": -0.0151, "total luciferase, % of control": 81.6, "Call": "inactive"}
{"Gene": "TEKT3 (tektin 3)", "siRNA no.": 1, "total luciferase, z-score": 2.47, "total luciferase, % of control": 131, "Call": "inactive"}
{"Gene": "TEKT3 (tektin 3)", "siRNA no.": 2, "total luciferase, z-score": -2.01, "total luciferase, % of control": 41.9, "Call": "inactive"}
{"Gene": "TEKT3 (tektin 3)", "siRNA no.": 3, "total luciferase, z-score": -1.19, "total luciferase, % of control": 58.2, "Call": "inactive"}
{"Gene": "PSMA8 (proteasome 20S subunit alpha 8)", "siRNA no.": 1, "total luciferase, z-score": 0.055, "total luciferase, % of control": 83, "Call": "inactive"}
{"Gene": "PSMA8 (proteasome 20S subunit alpha 8)", "siRNA no.": 2, "total luciferase, z-score": -1.18, "total luciferase, % of control": 58.4, "Call": "inactive"}
{"Gene": "PSMA8 (proteasome 20S subunit alpha 8)", "siRNA no.": 3, "total luciferase, z-score": -0.591, "total luciferase, % of control": 70.1, "Call": "inactive"}
{"Gene": "KCNJ5 (potassium inwardly rectifying channel subfamily J member 5)", "siRNA no.": 1, "total luciferase, z-score": 0.445, "total luciferase, % of control": 90.7, "Call": "inactive"}
{"Gene": "KCNJ5 (potassium inwardly rectifying channel subfamily J member 5)", "siRNA no.": 2, "total luciferase, z-score": -0.642, "total luciferase, % of control": 69.1, "Call": "inactive"}
{"Gene": "KCNJ5 (potassium inwardly rectifying channel subfamily J member 5)", "siRNA no.": 3, "total luciferase, z-score": 1.55, "total luciferase, % of control": 113, "Call": "inactive"}
{"Gene": "TM6SF1 (transmembrane 6 superfamily member 1)", "siRNA no.": 1, "total luciferase, z-score": -1.45, "total luciferase, % of control": 53.1, "Call": "inactive"}
{"Gene": "TM6SF1 (transmembrane 6 superfamily member 1)", "siRNA no.": 2, "total luciferase, z-score": 0.125, "total luciferase, % of control": 84.4, "Call": "inactive"}
{"Gene": "TM6SF1 (transmembrane 6 superfamily member 1)", "siRNA no.": 3, "total luciferase, z-score": -0.281, "total luciferase, % of control": 76.3, "Call": "inactive"}
{"Gene": "RNF113B (ring finger protein 113B)", "siRNA no.": 1, "total luciferase, z-score": -2.11, "total luciferase, % of control": 39.8, "Call": "inactive"}
{"Gene": "RNF113B (ring finger protein 113B)", "siRNA no.": 2, "total luciferase, z-score": -0.992, "total luciferase, % of control": 62.2, "Call": "inactive"}
{"Gene": "RNF113B (ring finger protein 113B)", "siRNA no.": 3, "total luciferase, z-score": -0.142, "total luciferase, % of control": 79.1, "Call": "inactive"}
{"Gene": "KDM1B (lysine demethylase 1B)", "siRNA no.": 1, "total luciferase, z-score": 0.194, "total luciferase, % of control": 85.8, "Call": "inactive"}
{"Gene": "KDM1B (lysine demethylase 1B)", "siRNA no.": 2, "total luciferase, z-score": -0.639, "total luciferase, % of control": 69.2, "Call": "inactive"}
{"Gene": "KDM1B (lysine demethylase 1B)", "siRNA no.": 3, "total luciferase, z-score": -0.239, "total luciferase, % of control": 77.1, "Call": "inactive"}
{"Gene": "PCDH15 (protocadherin related 15)", "siRNA no.": 1, "total luciferase, z-score": -0.0556, "total luciferase, % of control": 80.8, "Call": "inactive"}
{"Gene": "PCDH15 (protocadherin related 15)", "siRNA no.": 2, "total luciferase, z-score": 4.98, "total luciferase, % of control": 181, "Call": "active"}
{"Gene": "PCDH15 (protocadherin related 15)", "siRNA no.": 3, "total luciferase, z-score": 0.126, "total luciferase, % of control": 84.4, "Call": "inactive"}
{"Gene": "PINLYP (phospholipase A2 inhibitor and LY6/PLAUR domain containing)", "siRNA no.": 1, "total luciferase, z-score": -0.857, "total luciferase, % of control": 64.8, "Call": "inactive"}
{"Gene": "PINLYP (phospholipase A2 inhibitor and LY6/PLAUR domain containing)", "siRNA no.": 2, "total luciferase, z-score": 0.319, "total luciferase, % of control": 88.2, "Call": "inactive"}
{"Gene": "PINLYP (phospholipase A2 inhibitor and LY6/PLAUR domain containing)", "siRNA no.": 3, "total luciferase, z-score": 0.974, "total luciferase, % of control": 101, "Call": "inactive"}

Targets above whose gene name begins with T or t (6):
{"Gene": "TEKT3 (tektin 3)", "siRNA no.": 1, "total luciferase, z-score": 2.47, "total luciferase, % of control": 131, "Call": "inactive"}
{"Gene": "TEKT3 (tektin 3)", "siRNA no.": 2, "total luciferase, z-score": -2.01, "total luciferase, % of control": 41.9, "Call": "inactive"}
{"Gene": "TEKT3 (tektin 3)", "siRNA no.": 3, "total luciferase, z-score": -1.19, "total luciferase, % of control": 58.2, "Call": "inactive"}
{"Gene": "TM6SF1 (transmembrane 6 superfamily member 1)", "siRNA no.": 1, "total luciferase, z-score": -1.45, "total luciferase, % of control": 53.1, "Call": "inactive"}
{"Gene": "TM6SF1 (transmembrane 6 superfamily member 1)", "siRNA no.": 2, "total luciferase, z-score": 0.125, "total luciferase, % of control": 84.4, "Call": "inactive"}
{"Gene": "TM6SF1 (transmembrane 6 superfamily member 1)", "siRNA no.": 3, "total luciferase, z-score": -0.281, "total luciferase, % of control": 76.3, "Call": "inactive"}
